Test results reported in patent US12510524B2, “Compositions containing cannabinoid analog conjugates and methods of use” (priority 2014, dated 2025).

Assays:
[1] = tested on: DLBCL cancer cell lines; test: MTS cell viability assay, DLBCL cell lines as a group; assay type: cell-based; details: EJ, U2932, CJ and LY19, 72 h incubation, FIGS. 13-16
Experimental: The effects of SR141716 and VYR206 were analyzed. MTS assays for cell viability (72 h incubation) were performed on diffuse large B-cell lymphoma (DLBCL) cells—LR, MS, RC and DOHH2 (FIGS. 18A-18D) and mantle cell lymphoma (MCL) cells—Jeko, Mino, Rec-1 and JMP1 (FIGS. 19A-19D).

[2] = tested on: LY19 DLBCL cancer cell line; test: MTS cell viability assay, LY19; assay type: cell-based; details: 72 h incubation

SMILES: Cc1c(C(=O)NN2CCCCC2)nn(-c2ccc(Cl)cc2Cl)c1-c1ccc(I)cc1 [AM251]
- effect on the viability of DLBCL cancer cell lines [1]: significant results depending on the specific cell line
- effect on viability, comparison between cell lines [2]: more potent effect on LY19
